This experiment relates to TGR-1 cells.

On to `CN[C@H]1CCc2cc(OC)c(OC)c(OC)c2-c2ccc(OC)c(=O)cc21` [Colcemid, colcemid], for which, for the setting “24 hrs 0.1 μg/ml colcemid”, the “colcemid-treated cells showing multinuclei (>10 micronuclei)” value is 17% and the “colcemid-treated cells with no micronuclei” value was found to be 65%. In addition, the “content of induced micronuclei (Rad51 protein, fragmented DNA)” value (TGR-1 cultures treated with colcemid, FIG. 5C) is listed as “contain Rad51 protein”. Also, the “Rad51 staining in nuclei versus micronuclei” value (TGR-1 treated with colcemid one day, recovered two days, FIG. 7E-F) is given as “absence of Rad51 staining in the nuclei”.

Values taken from patent US6391564B1, “Methods and compositions utilizing Rad51” (priority 1997, dated 2002).
